# Test results reported in article PMC3066133.
# These are yes or no findings as the source states them, for the method shown. In cells and extracts the contact can be indirect. These calls come from enrichment with a bait or labelling near it, and not all partners need be listed.
# Biological target: HA-RI332, C-terminally truncated form of ribophorin-I with an HA epitope
# Experiment: affinity purification with mass spectrometry
row,binding,Binder
1,binds,"EXT2 (protein, UniProt Q93063 1-718) MCASVKYNIRGPALIPRMKTKHRIYYITLFSIVLLGLIATGMFQFWPHSIESSNDWNVEKRSIRDVPVVRLPADSPIPERGDLSCRMHTCFDVYRCGFNPKNKIKVYIYALKKYVDDFGVSVSNTISREYNELLMAISDSDYYTDDINRACLFVPSIDVLNQNTLRIKETAQAMAQLSRWDRGTNHLLFNMLPGGPPDYNTALDVPRDRALLAGGGFSTWTYRQGYDVSIPVYSPLSAEVDLPEKGPGPRQYFLLSSQVGLHPEYREDLEALQVKHGESVLVLDKCTNLSEGVLSVRKRCHKHQVFDYPQVLQEATFCVVLRGARLGQAVLSDVLQAGCVPVVIADSYILPFSEVLDWKRASVVVPEEKMSDVYSILQSIPQRQIEEMQRQARWFWEAYFQSIKAIALATLQIINDRIYPYAAISYEEWNDPPAVKWGSVSNPLFLPLIPPQSQGFTAIVLTYDRVESLFRVITEVSKVPSLSKLLVVWNNQNKNPPEDSLWPKIRVPLKVVRTAENKLSNRFFPYDEIETEAVLAIDDDIIMLTSDELQFGYEVWREFPDRLVGYPGRLHLWDHEMNKWKYESEWTNEVSMVLTGAAFYHKYFNYLYTYKMPGDIKNWVDAHMNCEDIAMNFLVANVTGKAVIKVTPRKKFKCPECTAIDGLSLDQTHMVERSECINKFASVFGTMPLKVVEHRADPVLYKDDFPEKLKSFPNIGSL"
2,binds,"UGGT2 (protein, UniProt Q9NYU1 28-1516) TVAASKSVTAHLAAKWPETPLLLEASEFMAEESNEKFWQFLETVQELAIYKQTESDYSYYNLILKKAGQFLDNLHINLLKFAFSIRAYSPAIQMFQQIAADEPPPDGCNAFVVIHKKHTCKINEIKKLLKKAASRTRPYLFKGDHKFPTNKENLPVVILYAEMGTRTFSAFHKVLSEKAQNEEILYVLRHYIQKPSSRKMYLSGYGVELAIKSTEYKALDDTQVKTVTNTTVEDETETNEVQGFLFGKLKEIYSDLRDNLTAFQKYLIESNKQMMPLKVWELQDLSFQAASQIMSAPVYDSIKLMKDISQNFPIKARSLTRIAVNQHMREEIKENQKDLQVRFKIQPGDARLFINGLRVDMDVYDAFSILDMLKLEGKMMNGLRNLGINGEDMSKFLKLNSHIWEYTYVLDIRHSSIMWINDLENDDLYITWPTSCQKLLKPVFPGSVPSIRRNFHNLVLFIDPAQEYTLDFIKLADVFYSHEVPLRIGFVFILNTDDEVDGANDAGVALWRAFNYIAEEFDISEAFISIVHMYQKVKKDQNILTVDNVKSVLQNTFPHANIWDILGIHSKYDEERKAGASFYKMTGLGPLPQALYNGEPFKHEEMNIKELKMAVLQRMMDASVYLQREVFLGTLNDRTNAIDFLMDRNNVVPRINTLILRTNQQYLNLISTSVTADVEDFSTFFFLDSQDKSAVIAKNMYYLTQDDESIISAVTLWIIADFDKPSGRKLLFNALKHMKTSVHSRLGIIYNPTSKINEENTAISRGILAAFLTQKNMFLRSFLGQLAKEEIATAIYSGDKIKTFLIEGMDKNAFEKKYNTVGVNIFRTHQLFCQDVLKLRPGEMGIVSNGRFLGPLDEDFYAEDFYLLEKITFSNLGEKIKGIVENMGINANNMSDFIMKVDALMSSVPKRASRYDVTFLRENHSVIKTNPQENDMFFNVIAIVDPLTREAQKMAQLLVVLGKIINMKIKLFMNCRGRLSEAPLESFYRFVLEPELMSGANDVSSLGPVAKFLDIPESPLLILNMITPEGWLVETVHSNCDLDNIHLKDTEKTVTAEYELEYLLLEGQCFDKVTEQPPRGLQFTLGTKNKPAVVDTIVMAHHGYFQLKANPGAWILRLHQGKSEDIYQIVGHEGTDSQADLEDIIVVLNSFKSKILKVKVKKETDKIKEDILTDEDEKTKGLWDSIKSFTVSLHKENKKEKDVLNIFSVASGHLYERFLRIMMLSVLRNTKTPVKFWLLKNYLSPTFKEVIPHMAKEYGFRYELVQYRWPRWLRQQTERQRIIWGYKILFLDVLFPLAVDKIIFVDADQIVRHDLKELRDFDLDGAPYGYTPFCDSRREMDGYRFWKTGYWASHLLRRKYHISALYVVDLKKFRRIGAGDRLRSQYQALSQDPNSLSNLDQDLPNNMIYQVAIKSLPQDWLWCETWCDDESKQRAKTIDLCNNPKTKESKLKAAARIVPEWVEYDAEIRQLLDHLENKKQDTILTHDEL"
3,binds,"PLOD1 (protein, UniProt Q02809 19-727) KGDAKPEDNLLVLTVATKETEGFRRFKRSAQFFNYKIQALGLGEDWNVEKGTSAGGGQKVRLLKKALEKHADKEDLVILFADSYDVLFASGPRELLKKFRQARSQVVFSAEELIYPDRRLETKYPVVSDGKRFLGSGGFIGYAPNLSKLVAEWEGQDSDSDQLFYTKIFLDPEKREQINITLDHRCRIFQNLDGALDEVVLKFEMGHVRARNLAYDTLPVLIHGNGPTKLQLNYLGNYIPRFWTFETGCTVCDEGLRSLKGIGDEALPTVLVGVFIEQPTPFVSLFFQRLLRLHYPQKHMRLFIHNHEQHHKAQVEEFLAQHGSEYQSVKLVGPEVRMANADARNMGADLCRQDRSCTYYFSVDADVALTEPNSLRLLIQQNKNVIAPLMTRHGRLWSNFWGALSADGYYARSEDYVDIVQGRRVGVWNVPYISNIYLIKGSALRGELQSSDLFHHSKLDPDMAFCANIRQQDVFMFLTNRHTLGHLLSLDSYRTTHLHNDLWEVFSNPEDWKEKYIHQNYTKALAGKLVETPCPDVYWFPIFTEVACDELVEEMEHFGQWSLGNNKDNRIQGGYENVPTIDIHMNQIGFEREWHKFLLEYIAPMTEKLYPGYYTRAQFDLAFVVRYKPDEQPSLMPHHDASTFTINIALNRVGVDYEGGGCRFLRYNCSIRAPRKGWTLMHPGRLTHYHEGLPTTRGTRYIAVSFVDP"
4,binds,"DNAJC3/P58IPK (protein, UniProt Q13217 32-504) GVNADVEKHLELGKKLLAAGQLADALSQFHAAVDGDPDNYIAYYRRATVFLAMGKSKAALPDLTKVIQLKMDFTAARLQRGHLLLKQGKLDEAEDDFKKVLKSNPSENEEKEAQSQLIKSDEMQRLRSQALNAFGSGDYTAAIAFLDKILEVCVWDAELRELRAECFIKEGEPRKAISDLKAASKLKNDNTEAFYKISTLYYQLGDHELSLSEVRECLKLDQDHKRCFAHYKQVKKLNKLIESAEELIRDGRYTDATSKYESVMKTEPSIAEYTVRSKERICHCFSKDEKPVEAIRVCSEVLQMEPDNVNALKDRAEAYLIEEMYDEAIQDYETAQEHNENDQQIREGLEKAQRLLKQSQKRDYYKILGVKRNAKKQEIIKAYRKLALQWHPDNFQNEEEKKKAEKKFIDIAAAKEVLSDPEMRKKFDDGEDPLDAESQQGGGGNPFHRSWNSWQGFNPFSSGGPFRFKFHFN"
5,binds,"CHPF2 (protein, UniProt Q9P2E5 1-772) MRLSSLLALLRPALPLILGLSLGCSLSLLRVSWIQGEGEDPCVEAVGERGGPQNPDSRARLDQSDEDFKPRIVPYYRDPNKPYKKVLRTRYIQTELGSRERLLVAVLTSRATLSTLAVAVNRTVAHHFPRLLYFTGQRGARAPAGMQVVSHGDERPAWLMSETLRHLHTHFGADYDWFFIMQDDTYVQAPRLAALAGHLSINQDLYLGRAEEFIGAGEQARYCHGGFGYLLSRSLLLRLRPHLDGCRGDILSARPDEWLGRCLIDSLGVGCVSQHQGQQYRSFELAKNRDPEKEGSSAFLSAFAVHPVSEGTLMYRLHKRFSALELERAYSEIEQLQAQIRNLTVLTPEGEAGLSWPVGLPAPFTPHSRFEVLGWDYFTEQHTFSCADGAPKCPLQGASRADVGDALETALEQLNRRYQPRLRFQKQRLLNGYRRFDPARGMEYTLDLLLECVTQRGHRRALARRVSLLRPLSRVEILPMPYVTEATRVQLVLPLLVAEAAAAPAFLEAFAANVLEPREHALLTLLLVYGPREGGRGAPDPFLGVKAAAAELERRYPGTRLAWLAVRAEAPSQVRLMDVVSKKHPVDTLFFLTTVWTRPGPEVLNRCRMNAISGWQAFFPVHFQEFNPALSPQRSPPGPPGAGPDPPSPPGADPSRGAPIGGRFDRQASAEGCFYNADYLAARARLAGELAGQEEEEALEGLEVMDVFLRFSGLHLFRAVEPGLVQKFSLRDCSPRLSEELYHRCRLSNLEGLGGRAQLAMALFEQEQANST"
